Source: patent US10246455B2, “Histone deacetylase inhibitors” (Taipei Medical University, priority 2014, dated 2019)

Tested on: PC3 prostate cancer cells
Assay: Three dimensional cell growth inhibitory assay (cellular spheres, MTT, microscopy): PC3
Type: cell-based, human
Protocol: For the three dimensional assay, cells in the logarithmic phase were cultured in 50% Matrigel-containing complete medium in 96-well plates at 37° C. with 5% CO2 for five days incubation, and treated with appropriate concentrations of test compounds for three generative times. Images of spheroids were taken under a microscope, and spheroid cell survival was determined by MTT assays.
The cells (in the 2D culture) and the cellular spheres (in the 3D culture) were treated with test compounds for 72 hours, and then subjected to the MTT colorimetric assay. Each value represents the mean of three independent experiments. Cellular spheres formed in semi-solid and drug effect on cellular spheres were examined using phase-contrast light microscopy.
More specifically, cellular spheres formed in semi-solid and drug effect on cellular spheres were examined using phase-contrast light microscopy. 3D structures of cells were analyzed using 4× magnification, 10× magnification, and 20× magnification.

[1] = Table 6, ratio of 3D to 2D culture IC50
[2] = Table 4, ratio of 3D to 2D culture value

Structure (SMILES) | Resistance (3D/2D) [1] | Resistance (3D/2D) [2]
COc1ccc(S(=O)(=O)N2CCc3cc(/C=C/C(=O)NO)cnc32)cc1 [Compound 5b, (E)-N-hydroxy-3-(1-(4-methoxyphenylsulfonyl)-2,3-dihydro-1H-pyrrolo[2,3-b]pyridin-5-yl)acrylamide] | 2.41 | 
O=C(/C=C/c1cccc(S(=O)(=O)n2ccc3cccnc32)c1)NO [Compound 7, (E)-3-(3-(1H-Pyrrolo[2,3-b]pyridin-1-ylsulfonyl)phenyl)-N-hydroxyacrylamide] |  | 2.13
COc1cccc2c1C(=O)c1c(O)c3c(c(O)c1C2=O)C[C@@](O)(C(=O)CO)C[C@@H]3O[C@H]1C[C@H](N)[C@H](O)[C@H](C)O1 [Adriamycin] | 10.3 | 10.3
O=C(CCCCCCC(=O)Nc1ccccc1)NO [SAHA, reference compound] | 1.69 | 1.69
CC[C@]1(O)C[C@H]2CN(CCc3c([nH]c4ccccc34)[C@@](C(=O)OC)(c3cc4c(cc3OC)N(C=O)[C@H]3[C@@](O)(C(=O)OC)[C@H](OC(C)=O)[C@]5(CC)C=CCN6CC[C@]43[C@@H]65)C2)C1 [Vincristine] | 3.33 | 3.33
CC(=O)O[C@H]1C(=O)[C@@]2(C)[C@H]([C@H](OC(=O)c3ccccc3)[C@]3(O)C[C@H](OC(=O)[C@H](O)[C@@H](NC(=O)c4ccccc4)c4ccccc4)C(C)=C1C3(C)C)[C@]1(OC(C)=O)CO[C@@H]1C[C@@H]2O [Paclitaxel] | 29250 | 29,250
